Laboratory results: PubChem BioAssay AID328 (DTP/NCI, 2004)
The list shows only some results of the screen, not a fair sample: it is rich in T/C values a quarter to a half above the control, in often repeated tests (any T/C) and in doses without a T/C. Further doses and runs are listed elsewhere. T/C: endpoint of the treated group in % of that of the vehicle group. Some entries give survivors of the animals treated and no T/C: the source holds a T/C of zero for them, seemingly a mark for toxic or unscored doses. Some survivor counts are full or nearly so, which does not show that the dose was tolerated: survival well below the control is almost never listed, so the zero probably covers shortened survival too. Counts of survivors are from the toxicity check (mostly the fifth day) where no day follows; animals may have died later. Schedules are NCI's codes, read here as Q, the interval in days (D) or hours (H), X, the number of doses. Where survival is the endpoint, the PubChem record calls one and a half times the control and up active, and a quarter to a half above the control has no call in these data; cut-offs in other NCI protocols can differ. Some T/C values are followed by the survivors on the day toxicity was checked, most often the fifth; where none is given, no animal had died by that day.

Tested on: BDF1 mice, P388 leukemia ip, median survival T/C
Experiment: NCI In Vivo Anticancer Drug Screen. Data for tumor model P388 Leukemia (intraperitoneal) in B6D2F1 (BDF1) mice
Conditions: T/C endpoint: median survival time, higher T/C = longer survival
In short: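 Survival ratio, drug arm over vehicle arm, in mice with a transplanted tumour.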

[1] = dose: 12.5 mg/kg/injection, schedule: Q01DX009 (ip), vehicle: saline
[2] = dose: 400.0 mg/kg/injection, schedule: Q01DX009 (ip), vehicle: saline with Tween-80
[3] = dose: 100.0 mg/kg/injection, schedule: Q01DX009 (ip), vehicle: saline with Tween-80

Q: With Nc1nc(N)c2nc(CNc3ccc(C(=O)NC(CC(=O)O)C(=O)O)cc3)cnc2n1 (stereo not given) as the molecule, how does the survivor count (dose: 150.0 mg/kg/injection, schedule: Q04DX003 (ip), vehicle: saline with Tween-80) read?
A: 1 of 6

Q: Which survivor count [1] does the source give for O=C(O)C(O)C(O)C(=O)O.O=C(O)C(O)C(O)C(=O)O.[O]=[V].[O]=[V] (stereo not given) here?
A: 6 of 6

Q: Which survivor count (dose: 400.0 mg/kg/injection, schedule: Q01DX009 (ip), vehicle: water) does the source give for NC(=O)c1nc(C(F)(F)F)[nH]c1C(N)=O here?
A: 0 of 6

Q: What about the survivor count (dose: 500.0 mg/kg/injection, schedule: Q01DX009 (ip), vehicle: water) of the same molecule?
A: 3 of 6

Q: O=C(O)CNC(=O)CCl was tested. Which survivor count (dose: 150.0 mg/kg/injection, schedule: Q01DX009 (ip), vehicle: Klucel (hydroxypropylcellulose) (HPC)) did it give?
A: 3 of 6

Q: And the survivor count (dose: 335.0 mg/kg/injection, schedule: Q01DX009 (ip), vehicle: Klucel (hydroxypropylcellulose) (HPC))?
A: 3 of 6

Q: For COc1ccc(C2=CCCCC2)cc1, which survivor count [2] is on record?
A: 6 of 6

Q: C=C=[CH][Sn]([c]1ccccc1)([c]1ccccc1)[c]1ccccc1 was tested. Which survivor count (dose: 50.0 mg/kg/injection, schedule: Q01DX009 (ip), vehicle: Klucel (hydroxypropylcellulose) (HPC)) did it give?
A: 6 of 6

Q: And the survivor count (dose: 100.0 mg/kg/injection, schedule: Q01DX009 (ip), vehicle: Klucel (hydroxypropylcellulose) (HPC))?
A: 4 of 6

Q: CSc1cc(-c2ccc(Cl)cc2)s[s+]1 was tested. Which survivor count [3] did it give?
A: 0 of 6

Q: What about the survivor count (dose: 100.0 mg/kg/injection, schedule: Q04DX003 (ip), vehicle: saline with Tween-80) of the same molecule?
A: 1 of 6

Q: What about the survivor count (dose: 200.0 mg/kg/injection, schedule: Q04DX003 (ip), vehicle: saline with Tween-80) of the same molecule?
A: 0 of 6

Q: With CCC(C)C1(C)OC1C(=O)OC (stereo not given) as the molecule, how does the survivor count [3] read?
A: 6 of 6

Q: How did the T/C (dose: 50.0 mg/kg/injection, schedule: Q01DX009 (ip), vehicle: saline with Tween-80) turn out when N#Cc1nc(C#N)c(Sc2ccccc2)c(Sc2ccccc2)c1Sc1ccccc1 was run?
A: 125 % of control

Q: And the T/C [3]?
A: 132 % of control

Q: What about the survivor count [3] of the same molecule?
A: 3 of 6

Q: And the survivor count (dose: 200.0 mg/kg/injection, schedule: Q01DX009 (ip), vehicle: saline with Tween-80)?
A: 3 of 6

Q: Which results are given for Cc1c(C(=O)CCl)c(=O)n(-c2ccccc2)n1C?
A: survivor count (dose: 200.0 mg/kg/injection, schedule: Q04DX003 (ip), vehicle: Klucel (hydroxypropylcellulose) (HPC)): 4 of 6; survivor count (dose: 400.0 mg/kg/injection, schedule: Q04DX003 (ip), vehicle: Klucel (hydroxypropylcellulose) (HPC)): 0 of 6

Q: Which survivor count (dose: 6.25 mg/kg/injection, schedule: Q01DX009 (ip), vehicle: saline with Tween-80) does the source give for COC1=CC(=O)C(Cl)=C(OC)C1=O here?
A: 5 of 6

Q: And the survivor count (dose: 12.5 mg/kg/injection, schedule: Q01DX009 (ip), vehicle: saline with Tween-80)?
A: 0 of 6

Q: How did the survivor count (dose: 66.0 mg/kg/injection, schedule: Q04DX003 (ip), vehicle: saline with Tween-80) turn out when CCOC(=O)C(Cc1ccc(N(CCCl)CCCl)cc1)NC=O (stereo not given) was run?
A: 6 of 6

Q: What about the T/C (dose: 1500.0 micrograms/kg/injection, schedule: Q04DX003 (ip), vehicle: saline with Tween-80) of the same molecule?
A: 130 % of control

Q: How did the survivor count (dose: 400.0 mg/kg/injection, schedule: Q04DX003 (ip), vehicle: saline with Tween-80) turn out when Cc1nc2c(N)nn(C)c2nc1C was run?
A: 1 of 6

Q: With Cc1ccc(C2(C#N)CCCC2)cc1 as the molecule, how does the survivor count [2] read?
A: 5 of 6

Q: Which survivor count [3] does the source give for CC1(C)CN(Cc2ccccc2)C(C)(C)CN1N here?
A: 3 of 6

Q: Which results are given for CCCCCC(CN(C)C)C(=O)/C=C/c1ccc(Cl)c(Cl)c1 (stereo not given)?
A: T/C (dose: 6.25 mg/kg/injection, schedule: Q01DX009 (ip), vehicle: saline): 142 % of control; T/C [1]: 126 % of control; T/C (dose: 25.0 mg/kg/injection, schedule: Q01DX009 (ip), vehicle: saline): 136 % of control [5 of 6 alive]; survivor count (dose: 35.0 mg/kg/injection, schedule: Q01DX009 (ip), vehicle: saline): 0 of 6; survivor count (dose: 55.0 mg/kg/injection, schedule: Q01DX009 (ip), vehicle: saline): 0 of 6; survivor count (dose: 80.0 mg/kg/injection, schedule: Q01DX009 (ip), vehicle: saline): 0 of 6; survivor count (dose: 100.0 mg/kg/injection, schedule: Q01DX001 (ip), vehicle: saline): 2 of 6; survivor count (dose: 200.0 mg/kg/injection, schedule: Q01DX001 (ip), vehicle: saline): 0 of 6

Q: With CC(Oc1ccccc1)C(=O)N=c1scc(-c2ccc(Br)cc2)n1-c1cccc2ccccc12 (stereo not given) as the molecule, how does the T/C (dose: 25.0 mg/kg/injection, schedule: Q01DX009 (ip), vehicle: gum acacia) read?
A: 132 % of control
